## Library screen at single concentrations

From ChEMBL document CHEMBL3988442, “University of Dundee, Small-Polar-MMV Screening Library” (2021).

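Whole-parasite assay of Trypanosoma brucei over 72 hours; the read-out is not stated. Concentration: 30 µM. Direction is inferred from retests: higher values go with stronger inhibition. Values scatter widely below zero; nearly all retest evidence comes from the higher of the two concentrations used. Size under these conditions: about 64,000 compounds, about 940 of them at 50% or above in at least one test.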

The filed quantity is “Percent Effect” (%). How 0% and 100% were set is not recorded. Most values in the screen are low, and negative values occur. This is an unselected part of the compounds tested.

{"structure": "c1ncn(CC2CCCCN2Cc2noc(C3CC3)n2)n1", "stereo": "centres undefined", "effect": 14.12}
{"structure": "COC(=O)CC1CCN(C(=O)Nc2ccc(-c3ccn[nH]3)cc2)C1", "stereo": "centres undefined", "effect": -24.09}
{"structure": "CC(C)(C)C(Cn1ccnc1)NC(=O)NCc1ccco1", "stereo": "centres undefined", "effect": 2.982}
{"structure": "Cc1cc(C)c2c(NCCC3(O)CCCC3)ncnc2n1", "effect": 18.07}
{"structure": "CC1=C(C(=O)N2CCCC(Cn3cc(CO)nn3)C2)OCCO1", "stereo": "centres undefined", "effect": 3.277}
{"structure": "[H][C@]12CC[C@]([H])(CN(Cc3c(C)noc3C)C1)N(Cc1csc(C(C)=O)c1)C2", "effect": -15.59}
{"structure": "Cc1ccc(C)c(OCc2cc(C(=O)N(C)CC(O)CO)no2)c1", "stereo": "centres undefined", "effect": -5.338}
{"structure": "Fc1cccc(N2CCOC3(CCCN(c4nncs4)C3)C2)c1", "stereo": "centres undefined", "effect": -43.94}
{"structure": "Cc1cnc(C(=O)N2CCC3(CCN(Cc4ccccn4)C3=O)C2)cn1.O=C(O)C(F)(F)F", "stereo": "centres undefined", "effect": -17.07}
{"structure": "COc1cccc(C2=CCN(CCN3CCOC3=O)CC2)c1", "effect": -349.8}
{"structure": "O=C(O)C(F)(F)F.[H][C@@]12CC(=O)N(c3ccsc3)[C@@]1([H])CCN2Cc1ccco1", "effect": -37.79}
{"structure": "CCCS(=O)(=O)CCN1CCN(c2cc(F)ccc2F)CC1", "effect": -40.35}
{"structure": "C=C(C)COc1ccccc1C(=O)NCCc1cc(O)nc(C)n1", "effect": -60}
{"structure": "CCn1ccc(CN(C)C(=O)CSc2nnc(N)s2)n1", "effect": 2.451}
{"structure": "NC(=O)CN(C(=O)Cc1ccc(C(F)(F)F)cc1)C1CCCC1", "effect": -5.046}
{"structure": "Cc1occc1C(=O)NCC(=O)N1CCC(COc2ccccc2)CC1", "effect": -62.44}
{"structure": "CCOc1ncccc1CNC(=O)N1CCCC1c1cc(C)no1", "stereo": "centres undefined", "effect": -4.946}
{"structure": "Cc1cc(NCCc2nc(C)c[nH]2)nc(-c2ccccc2O)n1", "effect": -81.51}
{"structure": "Cc1cccc(C(=O)N(CC(=O)O)CC(C)C)c1", "effect": -18.57}
{"structure": "Cc1c(I)cccc1C(=O)NCc1ncc[nH]1", "effect": -21.35}
{"structure": "[H][C@@]12C[C@@H](OCc3cccnc3)CN1CCN(C(=O)c1cscn1)C2", "effect": -22.96}
{"structure": "CC(C)c1nccc(-c2nccn2CCS(C)(=O)=O)n1", "effect": 5.213}
{"structure": "COC[C@H]1CCC[C@]12CN(Cc1cccc(C)n1)CCO2", "effect": -25.13}
{"structure": "CN(CCc1ccccn1)C(=O)CCC1CCCN(c2cnccn2)C1", "stereo": "centres undefined", "effect": -62.86}
{"structure": "CC(C)NC(=O)N1CCC2(CC1)Cc1ccccc1CN(C)C2=O", "effect": 3.961}
{"structure": "COC(C)(CNS(=O)(=O)c1cn(C)cn1)c1ccccc1F", "stereo": "centres undefined", "effect": 2.021}
{"structure": "CCn1cnnc1C1CCN(C(=O)c2cc3c(s2)CCOC3)CC1", "effect": -5.928}
{"structure": "CC(C)(C)c1cc(CN2CCOCC(O)C2)n[nH]1", "stereo": "centres undefined", "effect": -40.14}
{"structure": "CN(CCc1ccccn1)C(=O)c1cn(CCN2CCNCC2)nn1", "effect": 13.31}
{"structure": "Cn1nc2c(cc1=O)CN(Cc1nc(C(C)(C)C)no1)CC2", "effect": -15.72}
{"structure": "CN(C)S(=O)(=O)N1CCCC1C(=O)N1CCSCC1", "stereo": "centres undefined", "effect": -38.81}
{"structure": "CC(C(=O)N(C)Cc1ccc(Br)o1)n1cncn1", "stereo": "centres undefined", "effect": -57.18}
{"structure": "NS(=O)(=O)CCNC(=O)c1nnn(-c2ccccc2)c1C1CC1", "effect": -27.43}
{"structure": "Cn1ncc(N2CCOC(CCNC(=O)N3CCCCC3)C2)cc1=O", "stereo": "centres undefined", "effect": -24.94}
{"structure": "CS(=O)(=O)N1CCCC(Cc2ccnc3ccncc23)CC1", "stereo": "centres undefined", "effect": 28.39}

The first 2 entries again:

structure	effect
c1ncn(CC2CCCCN2Cc2noc(C3CC3)n2)n1 (centres undefined)	14.12
COC(=O)CC1CCN(C(=O)Nc2ccc(-c3ccn[nH]3)cc2)C1 (centres undefined)	-24.09